These results are taken from paper PMC7614228, “Structural maturation of SYCP1-mediated meiotic chromosome synapsis by SYCE3” (Nature structural & molecular biology, 2023).

These are yes or no findings as the source states them, for the method shown. In cells and extracts the contact can be indirect. Binding can be weak; no strength is given. Sequences can lack the tags named with a protein.

For experiment [1], the target named is MBP-SIX6OS1N with SYCE1core (SYCE1-SIX6OS1 complex) (human). Put plainly: pull-down; amylose pull-down after co-expression of MBP fusions (SYCE1, SYCE1-SIX6OS1, SYCE2-TEX12 core constructs) with His- or GST-SYCE3; lysis in 500 mM KCl, wash in 150 mM KCl, 4°C.
The target of experiment [2] is SYCE2-TEX12 core, MBP fusion (human). The description is as above.

B1: His-SYCE3 (full-length, amino-acids 1-88) (natural protein, human, UniProt A1L190 1-88, looked up)
chain: MDDADPEERNYDNMLKMLSDLNKDLEKLLEEMEKISVQATWMAYDMVVMRTNPTLAESMRRLEDAFVNCKEEMEKNWQELLHETKQRL
notes: SYCE3, full-length = amino-acids 1-88; source: E. coli BL21(DE3), co-expressed with MBP fusions; in lysate (amylose pull-down) or co-purified; not shown: His, N-terminal, kept
B1: the binding result in experiment [1] and in experiment [2] was “binds” throughout.
